Results from the supplement of paper PMC8728848.
The list shows a part of the results.

What was measured:
Assay in all cases: glycan array binding signal (z-score within array); higher = stronger binding
Details in all cases: glycan notation: IUPAC condensed, linker removed
[1] = target: Gal(b1-4)GlcNAc(b1-2)[Gal(b1-4)GlcNAc(b1-6)]Man(a1-6)[Gal(b1-4)GlcNAc(b1-2)Man(a1-3)]Man(b1-4)GlcNAc(b1-4)[Fuc(a1-6)]GlcNAc
Procedure, shortened: (§1)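 Negative Z-scores can be read as non-binding. The Z-score is calculated within each array and then averaged across arrays of one protein sequence at different concentrations or buffers and across linkers. Arrays, 3228 in all, were curated from the Consortium for Functional Glycomics database and kept only where the protein sequence was available.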

[2] = target: Gal(b1-4)GlcNAc(b1-2)[Gal(b1-4)GlcNAc(b1-6)]Man(a1-6)[GlcNAc(b1-4)][Gal(b1-4)GlcNAc(b1-2)Man(a1-3)]Man(b1-4)GlcNAc(b1-4)GlcNAc
Procedure, shortened: as §1

[3] = target: Gal(b1-4)GlcNAc(b1-2)[Gal(b1-4)GlcNAc(b1-6)]Man(a1-6)[GlcNAc(b1-4)][Gal(b1-4)GlcNAc(b1-2)[Gal(b1-4)GlcNAc(b1-4)]Man(a1-3)]Man(b1-4)GlcNAc(b1-4)[Fuc(a1-6)]GlcNAc
Procedure, shortened: as §1

[4] = target: Gal(b1-4)GlcNAc(b1-3)Gal(b1-3)GalNAc
Procedure, shortened: as §1

[5] = target: Gal(b1-4)GlcNAc(b1-3)Gal(b1-3)GlcNAc
Procedure, shortened: as §1

[6] = target: Gal(b1-4)GlcNAc(b1-3)Gal(b1-4)Glc
Procedure, shortened: as §1

[7] = target: Gal(b1-4)GlcNAc(b1-3)Gal(b1-4)GlcNAc
Procedure, shortened: as §1

[8] = target: Gal(b1-4)GlcNAc(b1-3)Gal(b1-4)GlcNAc(b1-2)Man(a1-3)[Gal(b1-4)GlcNAc(b1-3)Gal(b1-4)GlcNAc(b1-2)Man(a1-6)]Man(b1-4)GlcNAc(b1-4)GlcNAc
Procedure, shortened: as §1

[9] = target: Gal(b1-4)GlcNAc(b1-3)Gal(b1-4)GlcNAc(b1-2)Man(a1-3)[Gal(b1-4)GlcNAc(b1-3)Gal(b1-4)GlcNAc(b1-2)Man(a1-6)]Man(b1-4)GlcNAc(b1-4)[Fuc(a1-6)]GlcNAc
Procedure, shortened: as §1

[10] = target: Gal(b1-4)GlcNAc(b1-3)Gal(b1-4)GlcNAc(b1-2)[Gal(b1-4)GlcNAc(b1-3)Gal(b1-4)GlcNAc(b1-6)]Man(a1-6)[Gal(b1-4)GlcNAc(b1-3)Gal(b1-4)GlcNAc(b1-2)Man(a1-3)]Man(b1-4)GlcNAc(b1-4)GlcNAc
Procedure, shortened: as §1

[11] = target: Gal(b1-4)GlcNAc(b1-3)Gal(b1-4)GlcNAc(b1-2)[Gal(b1-4)GlcNAc(b1-3)Gal(b1-4)GlcNAc(b1-6)]Man(a1-6)[Gal(b1-4)GlcNAc(b1-3)Gal(b1-4)GlcNAc(b1-2)Man(a1-3)]Man(b1-4)GlcNAc(b1-4)[Fuc(a1-6)]GlcNAc
Procedure, shortened: as §1

[12] = target: Gal(b1-4)GlcNAc(b1-3)Gal(b1-4)GlcNAc(b1-3)Gal(b1-4)GlcNAc
Procedure, shortened: as §1

[13] = target: Gal(b1-4)GlcNAc(b1-3)Gal(b1-4)GlcNAc(b1-3)Gal(b1-4)GlcNAc(b1-2)Man(a1-3)[Gal(b1-4)GlcNAc(b1-3)Gal(b1-4)GlcNAc(b1-3)Gal(b1-4)GlcNAc(b1-2)Man(a1-6)]Man(b1-4)GlcNAc(b1-4)GlcNAc
Procedure, shortened: as §1

[14] = target: Gal(b1-4)GlcNAc(b1-3)Gal(b1-4)GlcNAc(b1-3)Gal(b1-4)GlcNAc(b1-2)Man(a1-3)[Gal(b1-4)GlcNAc(b1-3)Gal(b1-4)GlcNAc(b1-3)Gal(b1-4)GlcNAc(b1-2)Man(a1-6)]Man(b1-4)GlcNAc(b1-4)[Fuc(a1-6)]GlcNAc
Procedure, shortened: as §1

[15] = target: Gal(b1-4)GlcNAc(b1-3)Gal(b1-4)GlcNAc(b1-3)Gal(b1-4)GlcNAc(b1-2)[Gal(b1-4)GlcNAc(b1-3)Gal(b1-4)GlcNAc(b1-3)Gal(b1-4)GlcNAc(b1-6)]Man(a1-6)[Gal(b1-4)GlcNAc(b1-3)Gal(b1-4)GlcNAc(b1-3)Gal(b1-4)GlcNAc(b1-2)Man(a1-3)]Man(b1-4)GlcNAc(b1-4)[Fuc(a1-6)]GlcNAc
Procedure, shortened: as §1

[16] = target: Gal(b1-4)GlcNAc(b1-3)Gal(b1-4)GlcNAc(b1-3)Gal(b1-4)GlcNAc(b1-3)Gal(b1-4)GlcNAc(b1-2)Man(a1-3)[Gal(b1-4)GlcNAc(b1-3)Gal(b1-4)GlcNAc(b1-3)Gal(b1-4)GlcNAc(b1-3)Gal(b1-4)GlcNAc(b1-2)Man(a1-6)]Man(b1-4)GlcNAc(b1-4)GlcNAc
Procedure, shortened: as §1

[17] = target: Gal(b1-4)GlcNAc(b1-3)Gal(b1-4)GlcNAc(b1-3)Gal(b1-4)GlcNAc(b1-3)Gal(b1-4)GlcNAc(b1-2)Man(a1-3)[Gal(b1-4)GlcNAc(b1-3)Gal(b1-4)GlcNAc(b1-3)Gal(b1-4)GlcNAc(b1-3)Gal(b1-4)GlcNAc(b1-2)Man(a1-6)]Man(b1-4)GlcNAc(b1-4)[Fuc(a1-6)]GlcNAc
Procedure, shortened: as §1

[18] = target: Gal(b1-4)GlcNAc(b1-3)Gal(b1-4)GlcNAc(b1-3)Gal(b1-4)GlcNAc(b1-3)Gal(b1-4)GlcNAc(b1-2)[Gal(b1-4)GlcNAc(b1-3)Gal(b1-4)GlcNAc(b1-3)Gal(b1-4)GlcNAc(b1-3)Gal(b1-4)GlcNAc(b1-6)]Man(a1-6)[Gal(b1-4)GlcNAc(b1-3)Gal(b1-4)GlcNAc(b1-3)Gal(b1-4)GlcNAc(b1-3)Gal(b1-4)GlcNAc(b1-2)Man(a1-3)]Man(b1-4)GlcNAc(b1-4)[Fuc(a1-6)]GlcNAc
Procedure, shortened: as §1

[19] = target: Gal(b1-4)GlcNAc(b1-3)Gal(b1-4)GlcNAc(b1-3)Gal(b1-4)GlcNAc(b1-3)Gal(b1-4)GlcNAc(b1-3)Gal(b1-4)GlcNAc(b1-2)Man(a1-3)[Gal(b1-4)GlcNAc(b1-3)Gal(b1-4)GlcNAc(b1-3)Gal(b1-4)GlcNAc(b1-3)Gal(b1-4)GlcNAc(b1-3)Gal(b1-4)GlcNAc(b1-2)Man(a1-6)]Man(b1-4)GlcNAc(b1-4)GlcNAc
Procedure, shortened: as §1

[20] = target: Gal(b1-4)GlcNAc(b1-3)Gal(b1-4)GlcNAc(b1-3)Gal(b1-4)GlcNAc(b1-3)Gal(b1-4)GlcNAc(b1-3)Gal(b1-4)GlcNAc(b1-2)Man(a1-3)[Gal(b1-4)GlcNAc(b1-3)Gal(b1-4)GlcNAc(b1-3)Gal(b1-4)GlcNAc(b1-3)Gal(b1-4)GlcNAc(b1-3)Gal(b1-4)GlcNAc(b1-2)Man(a1-6)]Man(b1-4)GlcNAc(b1-4)[Fuc(a1-6)]GlcNAc
Procedure, shortened: as §1

[21] = target: Gal(b1-4)GlcNAc(b1-3)Gal(b1-4)GlcNAc(b1-3)Gal(b1-4)GlcNAc(b1-3)Gal(b1-4)GlcNAc(b1-3)Gal(b1-4)GlcNAc(b1-2)[Gal(b1-4)GlcNAc(b1-3)Gal(b1-4)GlcNAc(b1-3)Gal(b1-4)GlcNAc(b1-3)Gal(b1-4)GlcNAc(b1-3)Gal(b1-4)GlcNAc(b1-6)]Man(a1-6)[Gal(b1-4)GlcNAc(b1-3)Gal(b1-4)GlcNAc(b1-3)Gal(b1-4)GlcNAc(b1-3)Gal(b1-4)GlcNAc(b1-3)Gal(b1-4)GlcNAc(b1-2)Man(a1-3)]Man(b1-4)GlcNAc(b1-4)[Fuc(a1-6)]GlcNAc
Procedure, shortened: as §1

[22] = target: Gal(b1-4)GlcNAc(b1-3)Gal(b1-4)GlcNAc(b1-3)Gal(b1-4)GlcNAc(b1-3)Gal(b1-4)GlcNAc(b1-3)Gal(b1-4)GlcNAc(b1-3)Gal(b1-4)GlcNAc(b1-2)Man(a1-3)[Gal(b1-4)GlcNAc(b1-3)Gal(b1-4)GlcNAc(b1-3)Gal(b1-4)GlcNAc(b1-3)Gal(b1-4)GlcNAc(b1-3)Gal(b1-4)GlcNAc(b1-3)Gal(b1-4)GlcNAc(b1-2)Man(a1-6)]Man(b1-4)GlcNAc(b1-4)GlcNAc
Procedure, shortened: as §1

[23] = target: Gal(b1-4)GlcNAc(b1-3)Gal(b1-4)GlcNAc(b1-3)GalNAc
Procedure, shortened: as §1

[24] = target: Gal(b1-4)GlcNAc(b1-3)Gal(b1-4)GlcNAc(b1-3)[Gal(b1-4)GlcNAc(b1-3)Gal(b1-4)GlcNAc(b1-6)]GalNAc
Procedure, shortened: as §1

[25] = target: Gal(b1-4)GlcNAc(b1-3)Gal(b1-4)GlcNAc(b1-6)[Gal(b1-3)]GalNAc
Procedure, shortened: as §1

[26] = target: Gal(b1-4)GlcNAc(b1-3)Gal(b1-4)[Fuc(a1-3)]GlcNAc(b1-3)Gal(b1-4)[Fuc(a1-3)]GlcNAc
Procedure, shortened: as §1

[27] = target: Gal(b1-4)GlcNAc(b1-3)GalNAc
Procedure, shortened: as §1

[28] = target: Gal(b1-4)GlcNAc(b1-3)[Fuc(a1-3)GlcNAc(b1-6)]Gal(b1-4)Glc
Procedure, shortened: as §1

[29] = target: Gal(b1-4)GlcNAc(b1-3)[Gal(b1-4)GlcNAc(b1-6)]Gal(b1-4)GlcNAc
Procedure, shortened: as §1

[30] = target: Gal(b1-4)GlcNAc(b1-3)[GlcNAc(b1-6)]Gal(b1-4)GlcNAc
Procedure, shortened: as §1

[31] = target: Gal(b1-4)GlcNAc(b1-6)Gal(b1-4)GlcNAc
Procedure, shortened: as §1

[32] = target: Gal(b1-4)GlcNAc(b1-6)GalNAc
Procedure, shortened: as §1

[33] = target: Gal(b1-4)GlcNAc(b1-6)[Gal(b1-3)]GalNAc
Procedure, shortened: as §1

[34] = target: Gal(b1-4)GlcNAc(b1-6)[Gal(b1-4)GlcNAc(b1-3)]GalNAc
Procedure, shortened: as §1

[35] = target: Gal(b1-4)GlcNAc6P
Procedure, shortened: as §1

[36] = target: Gal(b1-6)Gal
Procedure, shortened: as §1

[37] = target: Gal3S(b1-3)GalNAc
Procedure, shortened: as §1

[38] = target: Gal3S(b1-3)GlcNAc
Procedure, shortened: as §1

B1: SUN4 (Saccharomyces cerevisiae), P53616 (protein)
chain: MGSSHHHHHHSSGLVPRGSHNGSIYGDLADFSGPYEKFEDGTIPCGQFPSGQGVIPISWLDEGGWSGVENTDTSTGGSCKEGSYCSYACQPGMSKTQWPSDQPSDGRSIGGLLCKDGYLYRSNTDTDYLCEWGVDAAYVVSELSNDVAICRTDYPGTENMVIPTYVQAGDSLPLTVVDQDTYYTWQGLKTSAQYYVNNAGISVEDACVWGSSSSGVGNWAPLNFGAGSSDGVAYLSLIPNPNNGNALNFNVKIVAADDSSTVNGECIYENGSFSGGSDGCTVSVTAGKAKFVLYN
- glycan array binding signal (z-score) [1]: 1.36
- glycan array binding signal (z-score) [2]: -0.281
- glycan array binding signal (z-score) [3]: 0.27
- glycan array binding signal (z-score) [4]: -0.696
- glycan array binding signal (z-score) [5]: -0.224
- glycan array binding signal (z-score) [6]: -0.568
- glycan array binding signal (z-score) [7]: -0.967
- glycan array binding signal (z-score) [8]: 2.66
- glycan array binding signal (z-score) [9]: 2
- glycan array binding signal (z-score) [10]: 0.506
- glycan array binding signal (z-score) [11]: 1.67
- glycan array binding signal (z-score) [12]: -0.393
- glycan array binding signal (z-score) [13]: 0.805
- glycan array binding signal (z-score) [14]: 2.9
- glycan array binding signal (z-score) [15]: 1.44
- glycan array binding signal (z-score) [16]: 1.29
- glycan array binding signal (z-score) [17]: 1.54
- glycan array binding signal (z-score) [18]: 0.519
- glycan array binding signal (z-score) [19]: -0.275
- glycan array binding signal (z-score) [20]: 0.385
- glycan array binding signal (z-score) [21]: 1.85
- glycan array binding signal (z-score) [22]: 0.625
- glycan array binding signal (z-score) [23]: 0.436
- glycan array binding signal (z-score) [24]: 1.79
- glycan array binding signal (z-score) [25]: 1.13
- glycan array binding signal (z-score) [26]: -0.015
- glycan array binding signal (z-score) [27]: 0.243
- glycan array binding signal (z-score) [28]: 0.07
- glycan array binding signal (z-score) [29]: -1.28
- glycan array binding signal (z-score) [30]: -0.542
- glycan array binding signal (z-score) [31]: -0.769
- glycan array binding signal (z-score) [32]: 0.067
- glycan array binding signal (z-score) [33]: -0.789
- glycan array binding signal (z-score) [34]: 0.441
- glycan array binding signal (z-score) [35]: -1.18
- glycan array binding signal (z-score) [36]: -0.735
- glycan array binding signal (z-score) [37]: 0.884
- glycan array binding signal (z-score) [38]: 0.398
